# Assay results reported in the supplement of paper PMC12067093, “Discovery and optimisation of a covalent ligand for TRIM25 and its application to targeted protein ubiquitination” (Chemical Science, 2025).
# Chains of the proteins cited; added tags and fusions are not shown. Lines headed by an entry give the natural chain unless they say otherwise; changes in a name come on top.
# UniProt Q13485: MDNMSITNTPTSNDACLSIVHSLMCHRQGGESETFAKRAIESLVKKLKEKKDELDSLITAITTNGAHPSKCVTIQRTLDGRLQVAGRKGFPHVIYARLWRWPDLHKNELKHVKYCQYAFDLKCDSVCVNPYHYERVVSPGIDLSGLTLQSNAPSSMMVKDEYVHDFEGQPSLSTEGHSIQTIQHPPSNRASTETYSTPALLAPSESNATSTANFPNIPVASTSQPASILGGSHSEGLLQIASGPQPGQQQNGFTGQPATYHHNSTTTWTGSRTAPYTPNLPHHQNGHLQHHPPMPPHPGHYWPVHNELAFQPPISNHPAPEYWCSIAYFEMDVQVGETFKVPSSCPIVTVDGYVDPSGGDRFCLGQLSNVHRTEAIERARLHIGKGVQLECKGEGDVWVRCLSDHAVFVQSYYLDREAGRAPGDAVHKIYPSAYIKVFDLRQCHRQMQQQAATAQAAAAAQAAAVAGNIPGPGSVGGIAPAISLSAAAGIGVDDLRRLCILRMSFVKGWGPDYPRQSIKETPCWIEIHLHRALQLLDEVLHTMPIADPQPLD
# UniProt Q7Z7L1: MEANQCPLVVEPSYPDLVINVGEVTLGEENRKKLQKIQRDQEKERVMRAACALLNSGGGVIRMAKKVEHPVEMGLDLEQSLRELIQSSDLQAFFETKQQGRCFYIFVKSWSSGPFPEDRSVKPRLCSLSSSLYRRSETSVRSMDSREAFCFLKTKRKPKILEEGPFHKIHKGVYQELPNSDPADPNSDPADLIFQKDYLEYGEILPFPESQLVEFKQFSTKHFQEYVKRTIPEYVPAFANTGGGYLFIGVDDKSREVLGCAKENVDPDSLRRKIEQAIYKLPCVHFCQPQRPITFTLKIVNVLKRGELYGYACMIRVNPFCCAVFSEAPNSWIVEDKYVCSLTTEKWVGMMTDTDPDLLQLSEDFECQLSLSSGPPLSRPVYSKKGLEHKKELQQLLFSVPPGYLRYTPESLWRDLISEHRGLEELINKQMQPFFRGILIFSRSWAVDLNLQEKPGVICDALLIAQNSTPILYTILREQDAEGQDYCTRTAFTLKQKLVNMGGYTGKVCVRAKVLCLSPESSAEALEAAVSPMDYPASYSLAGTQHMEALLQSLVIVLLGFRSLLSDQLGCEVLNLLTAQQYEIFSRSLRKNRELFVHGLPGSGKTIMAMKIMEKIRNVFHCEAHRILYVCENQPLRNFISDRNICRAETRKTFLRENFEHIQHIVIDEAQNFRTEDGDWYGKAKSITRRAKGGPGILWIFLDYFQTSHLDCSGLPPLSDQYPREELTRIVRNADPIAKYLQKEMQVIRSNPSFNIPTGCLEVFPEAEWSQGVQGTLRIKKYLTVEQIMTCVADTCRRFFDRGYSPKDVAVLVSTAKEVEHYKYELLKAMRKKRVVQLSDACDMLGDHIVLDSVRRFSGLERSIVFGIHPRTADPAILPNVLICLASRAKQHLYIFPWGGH
# UniProt Q14683: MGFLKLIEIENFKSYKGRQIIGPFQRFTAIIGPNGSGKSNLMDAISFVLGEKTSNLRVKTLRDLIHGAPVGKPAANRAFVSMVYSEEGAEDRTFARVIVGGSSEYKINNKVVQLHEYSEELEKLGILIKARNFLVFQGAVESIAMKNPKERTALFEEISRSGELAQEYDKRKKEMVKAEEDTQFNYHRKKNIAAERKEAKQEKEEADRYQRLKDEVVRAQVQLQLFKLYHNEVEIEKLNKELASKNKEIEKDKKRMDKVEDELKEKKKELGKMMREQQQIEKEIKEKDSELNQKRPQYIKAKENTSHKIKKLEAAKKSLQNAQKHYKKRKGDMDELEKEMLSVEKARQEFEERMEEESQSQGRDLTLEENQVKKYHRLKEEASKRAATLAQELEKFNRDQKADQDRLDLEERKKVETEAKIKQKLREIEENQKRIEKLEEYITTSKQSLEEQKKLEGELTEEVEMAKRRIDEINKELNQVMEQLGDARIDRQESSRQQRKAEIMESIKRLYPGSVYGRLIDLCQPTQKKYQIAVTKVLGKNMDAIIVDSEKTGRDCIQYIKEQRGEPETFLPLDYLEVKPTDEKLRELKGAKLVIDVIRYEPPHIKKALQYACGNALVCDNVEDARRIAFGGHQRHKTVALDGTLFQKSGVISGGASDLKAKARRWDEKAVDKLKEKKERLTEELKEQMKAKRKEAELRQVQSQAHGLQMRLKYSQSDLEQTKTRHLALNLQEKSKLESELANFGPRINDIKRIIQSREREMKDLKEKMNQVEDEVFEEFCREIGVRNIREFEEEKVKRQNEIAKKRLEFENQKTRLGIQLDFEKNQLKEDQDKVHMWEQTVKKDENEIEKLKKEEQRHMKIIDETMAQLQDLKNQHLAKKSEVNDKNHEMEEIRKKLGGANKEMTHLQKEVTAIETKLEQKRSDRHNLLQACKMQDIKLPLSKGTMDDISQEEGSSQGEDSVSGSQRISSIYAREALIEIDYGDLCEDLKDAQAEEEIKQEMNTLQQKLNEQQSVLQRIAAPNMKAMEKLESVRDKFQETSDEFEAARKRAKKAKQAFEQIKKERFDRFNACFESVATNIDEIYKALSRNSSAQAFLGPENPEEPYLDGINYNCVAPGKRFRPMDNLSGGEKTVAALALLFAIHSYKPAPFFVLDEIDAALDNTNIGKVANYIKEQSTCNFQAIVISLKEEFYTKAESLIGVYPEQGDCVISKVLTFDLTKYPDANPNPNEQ
# UniProt O75643, whole entry, looked up: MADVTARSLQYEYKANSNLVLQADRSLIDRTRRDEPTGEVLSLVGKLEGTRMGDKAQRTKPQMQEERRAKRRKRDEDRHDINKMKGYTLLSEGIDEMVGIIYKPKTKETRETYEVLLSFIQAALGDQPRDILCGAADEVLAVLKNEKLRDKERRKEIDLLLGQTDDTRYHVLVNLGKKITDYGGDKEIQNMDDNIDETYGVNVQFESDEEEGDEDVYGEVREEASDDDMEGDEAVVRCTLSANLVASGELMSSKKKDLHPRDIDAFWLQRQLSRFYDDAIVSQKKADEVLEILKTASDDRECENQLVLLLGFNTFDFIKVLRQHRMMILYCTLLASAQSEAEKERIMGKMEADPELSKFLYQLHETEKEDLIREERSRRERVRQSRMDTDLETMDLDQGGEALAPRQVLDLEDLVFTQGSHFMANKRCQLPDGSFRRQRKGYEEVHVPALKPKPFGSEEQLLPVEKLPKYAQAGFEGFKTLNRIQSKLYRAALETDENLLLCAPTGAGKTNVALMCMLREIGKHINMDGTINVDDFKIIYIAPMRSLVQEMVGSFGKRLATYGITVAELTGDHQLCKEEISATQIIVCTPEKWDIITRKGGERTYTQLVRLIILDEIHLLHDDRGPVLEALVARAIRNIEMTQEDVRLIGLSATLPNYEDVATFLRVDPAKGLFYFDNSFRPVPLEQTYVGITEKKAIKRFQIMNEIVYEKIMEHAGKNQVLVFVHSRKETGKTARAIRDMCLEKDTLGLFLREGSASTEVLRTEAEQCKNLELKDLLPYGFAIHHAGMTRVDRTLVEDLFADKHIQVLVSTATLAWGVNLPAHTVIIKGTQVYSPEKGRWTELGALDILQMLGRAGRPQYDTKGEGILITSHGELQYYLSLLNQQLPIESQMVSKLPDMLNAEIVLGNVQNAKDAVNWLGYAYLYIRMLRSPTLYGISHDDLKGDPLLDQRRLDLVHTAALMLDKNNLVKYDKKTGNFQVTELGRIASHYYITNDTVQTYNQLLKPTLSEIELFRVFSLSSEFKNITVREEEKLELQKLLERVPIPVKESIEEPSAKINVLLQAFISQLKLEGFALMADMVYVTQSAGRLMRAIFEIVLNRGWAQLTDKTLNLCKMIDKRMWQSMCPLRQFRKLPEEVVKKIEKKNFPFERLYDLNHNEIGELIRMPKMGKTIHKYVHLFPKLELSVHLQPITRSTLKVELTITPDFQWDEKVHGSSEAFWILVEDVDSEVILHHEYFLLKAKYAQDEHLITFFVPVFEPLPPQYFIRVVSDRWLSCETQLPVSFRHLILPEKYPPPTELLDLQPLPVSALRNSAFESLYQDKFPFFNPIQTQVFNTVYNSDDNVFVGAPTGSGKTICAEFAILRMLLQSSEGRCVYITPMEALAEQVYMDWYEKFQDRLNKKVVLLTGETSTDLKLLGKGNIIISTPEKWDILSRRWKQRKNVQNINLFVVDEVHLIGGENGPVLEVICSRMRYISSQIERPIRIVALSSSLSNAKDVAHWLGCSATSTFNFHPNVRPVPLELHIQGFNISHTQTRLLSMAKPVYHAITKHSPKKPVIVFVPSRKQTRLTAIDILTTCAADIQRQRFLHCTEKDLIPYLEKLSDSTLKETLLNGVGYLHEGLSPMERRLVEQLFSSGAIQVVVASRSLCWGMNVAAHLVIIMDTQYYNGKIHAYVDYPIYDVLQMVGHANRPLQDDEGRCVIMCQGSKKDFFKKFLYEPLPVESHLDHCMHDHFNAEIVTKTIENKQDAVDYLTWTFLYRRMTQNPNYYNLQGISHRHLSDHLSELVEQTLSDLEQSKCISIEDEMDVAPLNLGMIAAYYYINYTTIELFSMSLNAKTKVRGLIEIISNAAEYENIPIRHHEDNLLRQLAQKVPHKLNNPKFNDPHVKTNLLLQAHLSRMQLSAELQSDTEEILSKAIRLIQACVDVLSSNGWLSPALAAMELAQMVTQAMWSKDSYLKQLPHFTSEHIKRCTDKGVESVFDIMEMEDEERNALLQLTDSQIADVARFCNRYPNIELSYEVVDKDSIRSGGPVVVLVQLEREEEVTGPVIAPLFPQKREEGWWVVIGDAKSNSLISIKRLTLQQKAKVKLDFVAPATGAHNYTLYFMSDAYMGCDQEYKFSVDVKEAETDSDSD
# UniProt P09234, whole entry, looked up: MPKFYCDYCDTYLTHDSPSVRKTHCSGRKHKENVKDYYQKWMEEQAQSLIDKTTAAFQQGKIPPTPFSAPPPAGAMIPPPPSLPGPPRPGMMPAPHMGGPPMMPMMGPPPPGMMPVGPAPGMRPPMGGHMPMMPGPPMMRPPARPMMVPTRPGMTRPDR
# UniProt Q6GMV2: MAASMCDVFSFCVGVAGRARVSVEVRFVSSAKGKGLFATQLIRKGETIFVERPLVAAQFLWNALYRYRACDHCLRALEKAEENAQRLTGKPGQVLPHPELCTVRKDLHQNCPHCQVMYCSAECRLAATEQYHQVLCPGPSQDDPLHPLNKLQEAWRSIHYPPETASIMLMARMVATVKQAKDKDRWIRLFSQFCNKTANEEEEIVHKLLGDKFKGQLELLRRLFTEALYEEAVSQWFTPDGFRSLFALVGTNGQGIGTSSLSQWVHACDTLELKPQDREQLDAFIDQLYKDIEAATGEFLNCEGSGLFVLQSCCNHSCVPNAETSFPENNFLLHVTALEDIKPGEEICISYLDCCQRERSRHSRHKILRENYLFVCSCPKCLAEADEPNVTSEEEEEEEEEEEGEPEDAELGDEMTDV
# UniProt Q8WWI5: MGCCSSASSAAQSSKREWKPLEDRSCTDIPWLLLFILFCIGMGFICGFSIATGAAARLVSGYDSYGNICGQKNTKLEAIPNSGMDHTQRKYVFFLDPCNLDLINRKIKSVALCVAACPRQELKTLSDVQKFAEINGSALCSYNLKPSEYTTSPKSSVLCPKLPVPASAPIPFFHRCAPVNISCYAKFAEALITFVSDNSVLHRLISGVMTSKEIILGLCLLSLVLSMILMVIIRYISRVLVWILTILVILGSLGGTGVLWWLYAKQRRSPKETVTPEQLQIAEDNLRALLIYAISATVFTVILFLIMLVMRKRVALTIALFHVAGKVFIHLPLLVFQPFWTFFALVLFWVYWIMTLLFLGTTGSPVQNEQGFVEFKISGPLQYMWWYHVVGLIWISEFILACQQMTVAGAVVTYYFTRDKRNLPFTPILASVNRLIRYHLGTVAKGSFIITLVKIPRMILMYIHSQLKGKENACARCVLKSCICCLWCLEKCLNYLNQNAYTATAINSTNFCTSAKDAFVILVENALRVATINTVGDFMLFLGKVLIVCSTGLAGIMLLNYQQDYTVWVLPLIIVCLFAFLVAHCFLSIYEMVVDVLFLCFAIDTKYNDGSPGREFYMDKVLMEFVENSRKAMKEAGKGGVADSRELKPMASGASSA
# UniProt Q16533: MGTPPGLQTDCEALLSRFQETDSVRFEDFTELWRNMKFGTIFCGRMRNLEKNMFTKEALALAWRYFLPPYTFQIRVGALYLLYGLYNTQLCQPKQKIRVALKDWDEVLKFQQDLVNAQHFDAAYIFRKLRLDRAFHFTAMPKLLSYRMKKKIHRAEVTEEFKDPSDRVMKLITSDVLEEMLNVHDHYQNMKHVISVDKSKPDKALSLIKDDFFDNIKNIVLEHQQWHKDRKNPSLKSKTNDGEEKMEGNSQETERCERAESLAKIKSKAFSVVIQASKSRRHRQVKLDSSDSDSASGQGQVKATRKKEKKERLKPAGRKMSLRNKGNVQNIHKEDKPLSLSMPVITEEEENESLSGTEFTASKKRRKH
# This is one part of the list.
# Compound: Cc1cc(ccc1-c1ccccc1)C(=O)N1CCCN(CC1)C(=O)CCl [compound 10]
# Assay: probe-labelled cysteine peptide fold change vs DMSO (competition) (log2 fold change); higher = less target engagement (more negative = stronger competition)
# Conditions: 50 µM; THP-1; incubation time: 4 h
# 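Note: competitive profiling in live THP-1 cells: cysteine peptides tagged with an iodoacetamide desthiobiotin (IA-DTB) probe, intensity after compound treatment relative to DMSO-treated cells.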
row,Target,probe-labelled cysteine peptide fold change
1,SMC4_Q9NTJ3_260_GQTEHDEGMLEYLEDIIGCGR (UniProt Q9NTJ3),0.162
2,SLC39A8_Q9C0K1_101_FSVICPAVLQQLNFHPCEDRPK (UniProt Q9C0K1),0.168
3,SMARCA2_P51531_968_CDMSALQK (UniProt P51531),0.232
4,SMARCA2_P51531_1016_ICNHPYMFQHIEESFAEHLGYSNGVINGAELYR (UniProt P51531),0.067
5,SMG1_Q96Q15_1715_QLISSCPWLSELDESATEGVIK (UniProt Q96Q15),0.224
6,SMAD4_Q13485_127_CDSVCVNPYHYER (UniProt Q13485),0.186
7,SLFN11_Q7Z7L1_51_AACALLNSGGGVIR (UniProt Q7Z7L1),-0.183
8,SMC1A_Q14683_781_MNQVEDEVFEEFCR (UniProt Q14683),0.0443
9,SNRNP200_O75643_1115_TLNLCK (UniProt O75643),0.141
10,SNRNP200_O75643_1702+1706_CVIMCQGSK (UniProt O75643),-0.188
11,SNRNP200_O75643_2011_FCNRYPNIELSYEVVDK (UniProt O75643),0.0225
12,SNRNP200_O75643_769_TEAEQCK (UniProt O75643),0.064
13,SNRPC_P09234_6_FYCDYCDTYLTHDSPSVR (UniProt P09234),-0.549
14,SLC39A10_Q9ULF5_598_NYLCIEEEK (UniProt Q9ULF5),-0.202
15,SNRPC_P09234_25_KTHCSGR (UniProt P09234),-0.97
16,SNAPC3_Q92966_92_DLDCSLEAAAELR (UniProt Q92966),0.346
17,SMAD4_Q13485_115_YCQYAFDLK (UniProt Q13485),-0.164
18,SND1_Q7KZF4_268_DVQIILESCHNQNILGTILHPNGNITELLLK (UniProt Q7KZF4),0.0169
19,SMG5_Q9UPR3_39_LDLILCNK (UniProt Q9UPR3),0.533
20,SLC31A1_O15431_189_AVVVDITEHCH (UniProt O15431),-0.171

row,Target,probe-labelled cysteine peptide fold change
1,SMYD3_Q9H7B4_263_QLRDQYCFECDCFR (UniProt Q9H7B4),-0.258
2,SMPD1_P17405_229_ILFLTDLHWDHDYLEGTDPDCADPLCCR (UniProt P17405),-0.143
3,SNRNP200_O75643_1702_CVIMCQGSKK (UniProt O75643),-0.684
4,SLFN13_Q68D06_286_LPIVHFCSSKPR (UniProt Q68D06),-0.265
5,SNRNP200_O75643_502_AALETDENLLLCAPTGAGK (UniProt O75643),0.497
6,SNRNP200_O75643_1706_CVIMCQGSK (UniProt O75643),-0.0986
7,SMYD5_Q6GMV2_101_LTGKPGQVLPHPELCTVRK (UniProt Q6GMV2),-0.87
8,SMC1A_Q14683_619_ALQYACGNALVCDNVEDAR (UniProt Q14683),-0.0931
9,SLC44A1_Q8WWI5_98_YVFFLDPCNLDLINRK (UniProt Q8WWI5),-0.221
10,SMARCB1_Q12824_167_TFPLCFDDHDPAVIHENASQPEVLVPIRLDMEIDGQKLR (UniProt Q12824),-0.124
11,SNRNP200_O75643_742_DMCLEK (UniProt O75643),0.0646
12,SMYD5_Q6GMV2_101_LTGKPGQVLPHPELCTVR (UniProt Q6GMV2),-0.199
13,SNAPC1_Q16533_11_GTPPGLQTDCEALLSR (UniProt Q16533),0.347
14,SMC1A_Q14683_1073_FDRFNACFESVATNIDEIYK (UniProt Q14683),-0.171
15,SMARCA2_P51531_399_QLRQEVVACMR (UniProt P51531),-0.287
16,SMARCA4_P51532_998_CDMSALQR (UniProt P51532),0.198
17,SMG7_Q92540_537_NLSNNCDTGEK (UniProt Q92540),0.384
18,SLC3A2_P08195_431_WCSWSLSQAR (UniProt P08195),0.147
19,SNRPB_P14678_45_HMNLILCDCDEFRK (UniProt P14678),-0.106

# Part of the list above, with bars between the fields.
row | Target | probe-labelled cysteine peptide fold change
4 | SMARCA2_P51531_1016_ICNHPYMFQHIEESFAEHLGYSNGVINGAELYR (UniProt P51531) | 0.067
5 | SMG1_Q96Q15_1715_QLISSCPWLSELDESATEGVIK (UniProt Q96Q15) | 0.224
6 | SMAD4_Q13485_127_CDSVCVNPYHYER (UniProt Q13485) | 0.186
7 | SLFN11_Q7Z7L1_51_AACALLNSGGGVIR (UniProt Q7Z7L1) | -0.183
8 | SMC1A_Q14683_781_MNQVEDEVFEEFCR (UniProt Q14683) | 0.0443
9 | SNRNP200_O75643_1115_TLNLCK (UniProt O75643) | 0.141
10 | SNRNP200_O75643_1702+1706_CVIMCQGSK (UniProt O75643) | -0.188
